# Laboratory results published in the supplement of paper PMC8728848.
# The other results are listed elsewhere or left out.
# B1: AT3G44510(29) (Arabidopsis thaliana), F4J341 (protein)
# chain: MEEHLQGRIKLHDGRYLAYKERGVPKDDAKFTIVLVHGFGSSKDMNFNVSQELVNEIGIYFVLYDRAGYGESDPNPKRSLKSEAYDVQELADGLEIGSRFYLIGISMGSYTVWSCLKHIPQRLAGVAMVAPVVNFRWPSIPKSLMPKDYRREVAKWSVWIANYFPGLLQWLVTQNMFSTTSMLEKNPVYFNDQDIEVLKHIKGFPMLTKEKLRERGVFGTLRSDFLVAFGDWDFDPADLPDPSLSGPEKGSSSVHIWQGYEDKVMPFQLQRCLCRKLPWIRYHEVPKGGHLIVHYDGICDAILKSLLLGEDLPMYKPKAVITEPA
# What was measured:
# Assay in all cases: glycan array binding signal (z-score within array); higher = stronger binding
# Conditions in all cases: glycan notation: IUPAC condensed, linker removed
# [1] = molecular target: Gal(b1-4)GlcNAc(b1-3)Gal(b1-4)GlcNAc(b1-3)[Gal(b1-4)GlcNAc(b1-3)Gal(b1-4)GlcNAc(b1-6)]GalNAc
# Outline: (§1)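 Columns mapping to the same glycan were averaged after glycan names were converted to IUPAC-condensed notation. The data come from 3228 arrays in the Consortium for Functional Glycomics database, limited to those with an available protein sequence. Binding is reported as a within-array Z-score averaged across arrays of one protein sequence and across linkers.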
# [2] = molecular target: Gal(b1-4)GlcNAc(b1-3)Gal(b1-4)GlcNAc(b1-6)[Gal(b1-3)]GalNAc
# Outline: as §1
# [3] = molecular target: Gal(b1-4)GlcNAc(b1-3)Gal(b1-4)[Fuc(a1-3)]GlcNAc(b1-3)Gal(b1-4)[Fuc(a1-3)]GlcNAc
# Outline: as §1
# [4] = molecular target: Gal(b1-4)GlcNAc(b1-3)GalNAc
# Outline: as §1
# [5] = molecular target: Gal(b1-4)GlcNAc(b1-3)[Fuc(a1-3)GlcNAc(b1-6)]Gal(b1-4)Glc
# Outline: as §1
# [6] = molecular target: Gal(b1-4)GlcNAc(b1-3)[Gal(b1-4)GlcNAc(b1-6)]Gal(b1-4)GlcNAc
# Outline: as §1
# [7] = molecular target: Gal(b1-4)GlcNAc(b1-3)[GlcNAc(b1-6)]Gal(b1-4)GlcNAc
# Outline: as §1
# [8] = molecular target: Gal(b1-4)GlcNAc(b1-6)Gal(b1-4)GlcNAc
# Outline: as §1
# [9] = molecular target: Gal(b1-4)GlcNAc(b1-6)GalNAc
# Outline: as §1
# [10] = molecular target: Gal(b1-4)GlcNAc(b1-6)[Gal(b1-3)]GalNAc
# Outline: as §1
# [11] = molecular target: Gal(b1-4)GlcNAc(b1-6)[Gal(b1-4)GlcNAc(b1-3)]GalNAc
# Outline: as §1
# [12] = molecular target: Gal(b1-4)GlcNAc6P
# Outline: as §1
# [13] = molecular target: Gal(b1-6)Gal
# Outline: as §1
# [14] = molecular target: Gal3S(b1-3)GalNAc
# Outline: as §1
# [15] = molecular target: Gal3S(b1-3)GlcNAc
# Outline: as §1
# [16] = molecular target: Gal3S(b1-3)[Fuc(a1-4)]GlcNAc
# Outline: as §1
# [17] = molecular target: Gal3S(b1-4)Glc
# Outline: as §1
# [18] = molecular target: Gal3S(b1-4)Glc6S
# Outline: as §1
# [19] = molecular target: Gal3S(b1-4)GlcNAc
# Outline: as §1
# [20] = molecular target: Gal3S(b1-4)[Fuc(a1-3)]Glc6S
# Outline: as §1
# [21] = molecular target: Gal3S(b1-4)[Fuc(a1-3)]GlcNAc
# Outline: as §1
# [22] = molecular target: Gal3S(b1-4)[Fuc(a1-3)]GlcNAc6S
# Outline: as §1
# [23] = molecular target: Gal3S4S(b1-4)GlcNAc
# Outline: as §1
# [24] = molecular target: Gal3S6S(b1-4)GlcNAc
# Outline: as §1
# [25] = molecular target: Gal3S6S(b1-4)GlcNAc6S
# Outline: as §1
# [26] = molecular target: Gal4S(b1-4)GlcNAc
# Outline: as §1
# [27] = molecular target: Gal4S6S(b1-4)GlcNAc
# Outline: as §1
# [28] = molecular target: Gal6P(b1-4)GlcNAc
# Outline: as §1
# [29] = molecular target: Gal6S(b1-3)GlcNAc
# Outline: as §1
# [30] = molecular target: Gal6S(b1-3)GlcNAc6S
# Outline: as §1
# [31] = molecular target: Gal6S(b1-4)Glc
# Outline: as §1
# [32] = molecular target: Gal6S(b1-4)Glc6S
# Outline: as §1
# [33] = molecular target: Gal6S(b1-4)GlcNAc
# Outline: as §1
# [34] = molecular target: Gal6S(b1-4)GlcNAc6S
# Outline: as §1
# [35] = molecular target: GalNAc(a1-3)Gal
# Outline: as §1
# [36] = molecular target: GalNAc(a1-3)GalNAc
# Outline: as §1
# [37] = molecular target: GalNAc(a1-3)GalNAc(b1-3)Gal(a1-4)Gal(b1-4)Glc
# Outline: as §1
# [38] = molecular target: GalNAc(a1-3)GalNAc(b1-3)Gal(a1-4)Gal(b1-4)GlcNAc
# Outline: as §1
# [39] = molecular target: GalNAc(b1-3)Gal
# Outline: as §1
# [40] = molecular target: GalNAc(b1-3)Gal(a1-4)Gal(b1-4)GlcNAc
# Outline: as §1
# [41] = molecular target: GalNAc(b1-3)Gal(a1-4)Gal(b1-4)GlcNAc(b1-3)Gal(b1-4)Glc
# Outline: as §1
# [42] = molecular target: GalNAc(b1-3)Gal(a1-6)Gal(b1-4)Glc
# Outline: as §1
# [43] = molecular target: GalNAc(b1-3)GalNAc
# Outline: as §1
# [44] = molecular target: GalNAc(b1-3)GlcNAc
# Outline: as §1
# [45] = molecular target: GalNAc(b1-4)Gal(b1-4)Glc
# Outline: as §1
# [46] = molecular target: GalNAc(b1-4)GlcNAc
# Outline: as §1
# [47] = molecular target: GalNAc(b1-4)GlcNAc(b1-2)Man
# Outline: as §1
# [48] = molecular target: GalNAc(b1-4)GlcNAc(b1-2)Man(a1-3)[GalNAc(b1-4)GlcNAc(b1-2)Man(a1-6)]Man(b1-4)GlcNAc(b1-4)GlcNAc
# Outline: as §1
# [49] = molecular target: GalNAc(b1-4)GlcNAc(b1-3)GalNAc(b1-4)GlcNAc
# Outline: as §1
# [50] = molecular target: GalNAc(b1-4)GlcNAc6S
# Outline: as §1
# [51] = molecular target: GalNAc(b1-6)GalNAc
# Outline: as §1
# [52] = molecular target: GalNAc3S(b1-4)GlcNAc
# Outline: as §1
# [53] = molecular target: GalNAc3S(b1-4)GlcNAc3S
# Outline: as §1
# [54] = molecular target: GalNAc3S(b1-4)[Fuc(a1-3)]GlcNAc
# Outline: as §1
# [55] = molecular target: GalNAc4S6S(b1-4)GlcNAc
# Outline: as §1
# [56] = molecular target: GalNAc6S(b1-4)GlcNAc
# Outline: as §1
# [57] = molecular target: Glc(a1-4)Glc
# Outline: as §1
# [58] = molecular target: Glc(a1-4)Glc(a1-4)Glc(a1-4)Glc
# Outline: as §1
# [59] = molecular target: Glc(a1-6)Glc(a1-6)Glc
# Outline: as §1
# [60] = molecular target: Glc(a1-6)Glc(a1-6)Glc(a1-6)Glc
# Outline: as §1
# [61] = molecular target: Glc(b1-4)Glc
# Outline: as §1
# [62] = molecular target: Glc(b1-6)Glc
# Outline: as §1
# [63] = molecular target: GlcA(b1-3)Gal
# Outline: as §1
# [64] = molecular target: GlcA(b1-3)GlcNAc
# Outline: as §1
# [65] = molecular target: GlcA(b1-6)Gal
# Outline: as §1
# [66] = molecular target: GlcA3S(b1-3)Gal(b1-4)GlcNAc(b1-2)Man
# Outline: as §1
# [67] = molecular target: GlcA3S(b1-3)Gal(b1-4)GlcNAc(b1-3)Gal(b1-4)Glc
# Outline: as §1
# [68] = molecular target: GlcNAc(a1-3)Gal(b1-4)GlcNAc
# Outline: as §1
# [69] = molecular target: GlcNAc(a1-4)Gal(b1-3)GlcNAc
# Outline: as §1
# [70] = molecular target: GlcNAc(a1-4)Gal(b1-4)GalNAc
# Outline: as §1
# [71] = molecular target: GlcNAc(a1-4)Gal(b1-4)GlcNAc
# Outline: as §1
# [72] = molecular target: GlcNAc(a1-4)Gal(b1-4)GlcNAc(b1-3)Gal(b1-4)Glc
# Outline: as §1
# [73] = molecular target: GlcNAc(a1-4)Gal(b1-4)GlcNAc(b1-3)Gal(b1-4)GlcNAc
# Outline: as §1
# [74] = molecular target: GlcNAc(a1-4)Gal(b1-4)GlcNAc(b1-3)Gal(b1-4)GlcNAc(b1-3)Gal(b1-4)GlcNAc
# Outline: as §1
# [75] = molecular target: GlcNAc(a1-4)Gal(b1-4)GlcNAc(b1-3)Gal(b1-4)[Fuc(a1-3)]GlcNAc(b1-3)Gal(b1-4)[Fuc(a1-3)]GlcNAc
# Outline: as §1
binder,measurement,setting,value
B1,glycan array binding signal (z-score),[1],0.078
same,glycan array binding signal (z-score),[2],-0.218
same,glycan array binding signal (z-score),[3],-0.05
same,glycan array binding signal (z-score),[4],-0.123
same,glycan array binding signal (z-score),[5],-0.587
same,glycan array binding signal (z-score),[6],-0.167
same,glycan array binding signal (z-score),[7],-0.385
same,glycan array binding signal (z-score),[8],-0.161
same,glycan array binding signal (z-score),[9],0.935
same,glycan array binding signal (z-score),[10],-0.552
same,glycan array binding signal (z-score),[11],0.477
same,glycan array binding signal (z-score),[12],-0.557
same,glycan array binding signal (z-score),[13],-0.503
same,glycan array binding signal (z-score),[14],-0.428
same,glycan array binding signal (z-score),[15],0.218
same,glycan array binding signal (z-score),[16],1.1
same,glycan array binding signal (z-score),[17],-0.113
same,glycan array binding signal (z-score),[18],0.282
same,glycan array binding signal (z-score),[19],0.576
same,glycan array binding signal (z-score),[20],1.66
same,glycan array binding signal (z-score),[21],0.527
same,glycan array binding signal (z-score),[22],-0.023
same,glycan array binding signal (z-score),[23],0.046
same,glycan array binding signal (z-score),[24],0.027
same,glycan array binding signal (z-score),[25],0.77
same,glycan array binding signal (z-score),[26],-0.704
same,glycan array binding signal (z-score),[27],-0.352
same,glycan array binding signal (z-score),[28],-0.608
same,glycan array binding signal (z-score),[29],-0.183
same,glycan array binding signal (z-score),[30],-0.405
same,glycan array binding signal (z-score),[31],-0.234
same,glycan array binding signal (z-score),[32],-0.052
same,glycan array binding signal (z-score),[33],0.603
same,glycan array binding signal (z-score),[34],-0.627
same,glycan array binding signal (z-score),[35],-0.061
same,glycan array binding signal (z-score),[36],-0.417
same,glycan array binding signal (z-score),[37],-0.476
same,glycan array binding signal (z-score),[38],-0.526
same,glycan array binding signal (z-score),[39],-0.215
same,glycan array binding signal (z-score),[40],3.41
same,glycan array binding signal (z-score),[41],-0.29
same,glycan array binding signal (z-score),[42],-0.353
same,glycan array binding signal (z-score),[43],0.223
same,glycan array binding signal (z-score),[44],-0.421
same,glycan array binding signal (z-score),[45],-0.819
same,glycan array binding signal (z-score),[46],9.27
same,glycan array binding signal (z-score),[47],-0.653
same,glycan array binding signal (z-score),[48],0.424
same,glycan array binding signal (z-score),[49],0.405
same,glycan array binding signal (z-score),[50],0.491
same,glycan array binding signal (z-score),[51],-0.625
same,glycan array binding signal (z-score),[52],0.659
same,glycan array binding signal (z-score),[53],-0.871
same,glycan array binding signal (z-score),[54],-0.126
same,glycan array binding signal (z-score),[55],-0.488
same,glycan array binding signal (z-score),[56],-0.081
same,glycan array binding signal (z-score),[57],0.031
same,glycan array binding signal (z-score),[58],-0.179
same,glycan array binding signal (z-score),[59],0.706
same,glycan array binding signal (z-score),[60],-0.082
same,glycan array binding signal (z-score),[61],-0.773
same,glycan array binding signal (z-score),[62],-0.74
same,glycan array binding signal (z-score),[63],1.18
same,glycan array binding signal (z-score),[64],-0.45
same,glycan array binding signal (z-score),[65],0.079
same,glycan array binding signal (z-score),[66],-0.477
same,glycan array binding signal (z-score),[67],-0.015
same,glycan array binding signal (z-score),[68],-0.516
same,glycan array binding signal (z-score),[69],0.585
same,glycan array binding signal (z-score),[70],0.233
same,glycan array binding signal (z-score),[71],0.318
same,glycan array binding signal (z-score),[72],0.232
same,glycan array binding signal (z-score),[73],-0.817
same,glycan array binding signal (z-score),[74],-0.072
same,glycan array binding signal (z-score),[75],1.31

# 16 entries from above, with bars between the fields.
binder | measurement | setting | value
B1 | glycan array binding signal (z-score) | [49] | 0.405
same | glycan array binding signal (z-score) | [50] | 0.491
same | glycan array binding signal (z-score) | [51] | -0.625
same | glycan array binding signal (z-score) | [52] | 0.659
same | glycan array binding signal (z-score) | [53] | -0.871
same | glycan array binding signal (z-score) | [54] | -0.126
same | glycan array binding signal (z-score) | [55] | -0.488
same | glycan array binding signal (z-score) | [56] | -0.081
same | glycan array binding signal (z-score) | [57] | 0.031
same | glycan array binding signal (z-score) | [58] | -0.179
same | glycan array binding signal (z-score) | [59] | 0.706
same | glycan array binding signal (z-score) | [60] | -0.082
same | glycan array binding signal (z-score) | [61] | -0.773
same | glycan array binding signal (z-score) | [62] | -0.74
same | glycan array binding signal (z-score) | [63] | 1.18
same | glycan array binding signal (z-score) | [64] | -0.45
